Values joined by “and” are separate entries in the source; they are usually repeats but may differ in a detail not shown here. Identical values can stand only once. Most of the hits are listed elsewhere, so they are rarer here than in the full data. Results filed as inconclusive are left out. Active and inactive are the calls of the source. The call rests on the fitted dose curve; tested in HEK293 cells.
Assay: qHTS for Inhibitors of binding or entry into cells for Lassa Virus
Conditions: Lassa virus pseudotyped entry inhibition, cell-based qHTS; at 49.2 µM (top of the series)
In the case of O=C(CCCCCCC(=O)Nc1ccccc1)NO, the activity change, negative = inhibition is reported as inactive: -11.6% and inactive: -18.4%.

From PubChem BioAssay AID720533 (National Center for Advancing Translational Sciences (NCATS), 2013)
On the % scale 0 is the no-effect control and ±100 the full control effect.
